PubChem BioAssay AID504764 | Drosophila RNAi Screening Center – 2011

Purpose: 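Genome-wide screen for regulators of Notch-driven gene expression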 (primary screen)
Cell system: Drosophila Kc167 cells
Reagents: long dsRNA against Drosophila genes
Time to read-out: about 5 days (4 days dsRNA, then 24 h after transfection)
Conditions: transfection of constitutively active membrane-tethered Notch lacking the extracellular domain, read 24 h later
Detection: 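Light from a Notch-responsive E(spl)m3 luciferase reporter under active Notch, with control-promoter and no-Notch reporter wells to normalise; raw counts from paired wells a and b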
Scale: induced reporter light, run 1, well a and induced reporter light, run 1, well b: higher = more light from the Notch target reporter with active Notch; control promoter light, run 1, well a and control promoter light, run 1, well b: higher = more light from the viral control promoter (cell number, transfection, viability); uninduced reporter light, run 1, well a: higher = more light from the Notch target reporter without active Notch
Hit rule: 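Hit if the duplicate-averaged log2 ratio of induced to control-promoter light gives a plate-wise z beyond ±2, or induced to uninduced beyond ±1.8; weak-control or discordant-duplicate wells dropped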
Meaning of the calls: active = modifier hit (raised or lowered Notch signal); inactive = not a hit
In all, the deposit lists about 22,000 reagents; below is an unselected part of those with a known target gene and a result. Over the whole deposit, 403 (1.9%) were called active. 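Unnormalised raw counts per well; ratio z-scores behind the hit calls and whether each hit raises or lowers signal are not deposited.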 Entries without a mark were called inactive. Names joined by + are all predicted targets of the reagent. Not stated in the record: the amount of reagent.

gene | amplicon | induced reporter light, run 1, well a | induced reporter light, run 1, well b | control promoter light, run 1, well a | control promoter light, run 1, well b | uninduced reporter light, run 1, well a
CG13747 | DRSC06418 | 1.81e5 | 1.86e5 | 2.65e5 | 2.28e5 | 17625
BckdhB | DRSC21183 | 86445 | 74200 | 1.08e5 | 1.31e5 | 9345
CG6195 | DRSC15989 | 1.98e5 | 1.91e5 | 1.88e5 | 1.86e5 | 14720
Grx1t | DRSC04530 | 33710 | 36640 | 31295 | 30520 | 2380
CG31371 | DRSC15079 | 1.10e5 | 1.05e5 | 1.97e5 | 1.85e5 | 11600
CG3335 | DRSC10358 | 31600 | 39090 | 38135 | 44300 | 1782
MetRS-m | DRSC16443 | 1.46e5 | 1.22e5 | 1.04e5 | 91255 | 11240
MetRS-m | DRSC16515 | 2.75e5 | 2.74e5 | 2.98e5 | 3.15e5 | 21755
CSN4 | DRSC07350 | 96120 | 89615 | 87915 | 84160 | 12010
Eglp3 | DRSC04293 | 1.30e5 | 1.20e5 | 1.34e5 | 1.25e5 | 10815
CG18139 (retired record) + Hmx | DRSC15307 | 2.18e5 | 1.96e5 | 2.18e5 | 2.27e5 | 18930
qvr | DRSC05280 | 2.50e5 | 1.91e5 | 2.95e5 | 3.10e5 | 23665
CG30222 | DRSC04125 | 46685 | 58315 | 65605 | 60995 | 4880
CG30222 | DRSC04262 | 60305 | 58035 | 52450 | 52925 | 3505
Desat1 | DRSC16668 | 67260 | 72670 | 51770 | 41740 | 4170
Pis | DRSC20178 | 40395 | 30970 | 32715 | 30270 | 3705
ft | DRSC00819 | 86220 (active) | 98115 | 57855 | 77940 | 6610
Septin5 | DRSC06843 | 1.39e5 | 1.07e5 | 1.53e5 | 1.30e5 | 10188
CG31337 | DRSC12981 | 1.41e5 | 1.27e5 | 1.45e5 | 1.86e5 | 10360
caz | DRSC20317 | 40500 | 40345 | 32075 | 31695 | 2650
CG33506 | DRSC05981 | 1.94e5 | 1.93e5 | 2.27e5 | 1.91e5 | 17360
CG5013 | DRSC15695 | 2.26e5 | 2.07e5 | 2.66e5 | 2.61e5 | 17855
Syt12 | DRSC19359 | 1.46e5 | 1.42e5 | 3.29e5 | 2.91e5 | 9120
CCHa1 | DRSC14821 | 63970 | 76745 | 25860 | 28250 | 11960
sosie | DRSC14636 | 1.40e5 | 1.43e5 | 1.52e5 | 1.33e5 | 11495
Orai | DRSC05684 | 1.05e5 | 1.04e5 | 1.50e5 | 1.04e5 | 7750
Act57B | DRSC04042 | 2.18e5 | 2.07e5 | 1.80e5 | 1.94e5 | 13050
fusl | DRSC02351 | 1.88e5 | 1.84e5 | 1.75e5 | 2.06e5 | 13335
mxt | DRSC00551 | 1.08e5 | 1.03e5 | 97245 | 97985 | 13492
Mst77F | DRSC11871 | 1.15e5 | 1.26e5 | 1.04e5 | 1.24e5 | 10125
CG12948 | DRSC14576 | 72445 | 79560 | 77450 | 57620 | 5510
DIP1 | DRSC20818 | 1.33e5 | 1.09e5 | 1.48e5 | 1.72e5 | 12985
mRpS6 | DRSC08470 | 2.79e5 | 2.70e5 | 4.02e5 | 3.54e5 | 15185
CG14006 | DRSC02338 | 1.45e5 (active) | 1.42e5 | 2.08e5 | 1.50e5 | 11950
